{"source": "PubChem BioAssay AID1259405 (NCATS, 2018)", "screen": "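Knock-downs that lift recombinant protein yield in hamster ovary cells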 (primary screen)", "cells": "Chinese hamster CHO-K1 ovary cells with stable secreted eGFP expression", "knock-down reagent": "single siRNA against mouse genes, 0.8 pmol siRNA per well (2 µl of 400 nM stock)", "duration": "3 days", "read-out": "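Percent of the per-plate non-targeting control median for intracellular GFP per well by laser scanning cytometry and for cell viability by ATP luminescence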", "scale": "GFP, % of control: higher = more GFP per well, higher productivity; viability (ATP), % of control: higher = more viable cells (more ATP)", "call rule": "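a knock-down is called active if GFP reaches 120% or more of non-targeting control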", "note": "The deposit covers about 50,000 reagents; below is an unselected part. About 4,000 of them (8%) count as active. 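Mouse siRNA library applied to hamster cells; one well for each siRNA.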 A number with no mark means an inactive call."}
{"Target gene": "Cntfr (GeneID 12804)", "PubChem SID": "SID363568796", "GFP, % of control": 119, "viability (ATP), % of control": 109}
{"Target gene": "Cntfr (GeneID 12804)", "PubChem SID": "SID363576188", "GFP, % of control": 78.4, "viability (ATP), % of control": 51}
{"Target gene": "Cntfr (GeneID 12804)", "PubChem SID": "SID363579004", "GFP, % of control": "192 (active)", "viability (ATP), % of control": 88.6}
{"Target gene": "Tcea1 (GeneID 21399)", "PubChem SID": "SID363573623", "GFP, % of control": 85.4, "viability (ATP), % of control": 86.8}
{"Target gene": "Tcea1 (GeneID 21399)", "PubChem SID": "SID363581367", "GFP, % of control": 86, "viability (ATP), % of control": 53.3}
{"Target gene": "Tcea1 (GeneID 21399)", "PubChem SID": "SID363583831", "GFP, % of control": 70.7, "viability (ATP), % of control": 102}
{"Target gene": "E130114P18Rik (GeneID 319865)", "PubChem SID": "SID363539721", "GFP, % of control": 56.5, "viability (ATP), % of control": 73.4}
{"Target gene": "E130114P18Rik (GeneID 319865)", "PubChem SID": "SID363561022", "GFP, % of control": 82.4, "viability (ATP), % of control": 78.8}
{"Target gene": "E130114P18Rik (GeneID 319865)", "PubChem SID": "SID363565112", "GFP, % of control": 80, "viability (ATP), % of control": 42.9}
{"Target gene": "Dmac2l (GeneID 68055)", "PubChem SID": "SID363547665", "GFP, % of control": 101, "viability (ATP), % of control": 62.2}
{"Target gene": "Dmac2l (GeneID 68055)", "PubChem SID": "SID363558434", "GFP, % of control": 64, "viability (ATP), % of control": 66}
{"Target gene": "Dmac2l (GeneID 68055)", "PubChem SID": "SID363560192", "GFP, % of control": 73.7, "viability (ATP), % of control": 74.2}
{"Target gene": "Rpl3l (GeneID 66211)", "PubChem SID": "SID363554011", "GFP, % of control": 33.4, "viability (ATP), % of control": 45.9}
{"Target gene": "Rpl3l (GeneID 66211)", "PubChem SID": "SID363561968", "GFP, % of control": 64.2, "viability (ATP), % of control": 75.6}
{"Target gene": "Rpl3l (GeneID 66211)", "PubChem SID": "SID363565706", "GFP, % of control": 44.3, "viability (ATP), % of control": 57.2}
{"Target gene": "Timmdc1 (GeneID 76916)", "PubChem SID": "SID363542510", "GFP, % of control": 73.2, "viability (ATP), % of control": 73.9}
{"Target gene": "Timmdc1 (GeneID 76916)", "PubChem SID": "SID363552001", "GFP, % of control": 61.7, "viability (ATP), % of control": 66.6}
{"Target gene": "Timmdc1 (GeneID 76916)", "PubChem SID": "SID363559606", "GFP, % of control": 74.1, "viability (ATP), % of control": 92.3}
{"Target gene": "Mettl14 (GeneID 210529)", "PubChem SID": "SID363539960", "GFP, % of control": 46.6, "viability (ATP), % of control": 56.7}
{"Target gene": "Mettl14 (GeneID 210529)", "PubChem SID": "SID363561261", "GFP, % of control": 56.7, "viability (ATP), % of control": 79.4}
{"Target gene": "Mettl14 (GeneID 210529)", "PubChem SID": "SID363564297", "GFP, % of control": "120 (active)", "viability (ATP), % of control": 90.5}
{"Target gene": "Popdc1 (GeneID 23828)", "PubChem SID": "SID363547049", "GFP, % of control": 75.5, "viability (ATP), % of control": 84.9}
{"Target gene": "Popdc1 (GeneID 23828)", "PubChem SID": "SID363549861", "GFP, % of control": 77.3, "viability (ATP), % of control": 88.3}
{"Target gene": "Popdc1 (GeneID 23828)", "PubChem SID": "SID363587915", "GFP, % of control": 100, "viability (ATP), % of control": 103}
{"Target gene": "Acin1 (GeneID 56215)", "PubChem SID": "SID363542691", "GFP, % of control": 44.7, "viability (ATP), % of control": 55}
{"Target gene": "Acin1 (GeneID 56215)", "PubChem SID": "SID363546208", "GFP, % of control": 72.1, "viability (ATP), % of control": 51.9}
{"Target gene": "Acin1 (GeneID 56215)", "PubChem SID": "SID363547964", "GFP, % of control": 52.3, "viability (ATP), % of control": 75.5}
{"Target gene": "Iqsec2 (GeneID 245666)", "PubChem SID": "SID363545775", "GFP, % of control": 82.4, "viability (ATP), % of control": 61.6}
{"Target gene": "Iqsec2 (GeneID 245666)", "PubChem SID": "SID363549288", "GFP, % of control": 71.8, "viability (ATP), % of control": 80.2}
{"Target gene": "Iqsec2 (GeneID 245666)", "PubChem SID": "SID363563094", "GFP, % of control": 49.3, "viability (ATP), % of control": 53}
{"Target gene": "Arnt2 (GeneID 11864)", "PubChem SID": "SID363573515", "GFP, % of control": 33.9, "viability (ATP), % of control": 105}
{"Target gene": "Arnt2 (GeneID 11864)", "PubChem SID": "SID363588754", "GFP, % of control": 80.4, "viability (ATP), % of control": 62.1}
{"Target gene": "C030006K11Rik (GeneID 223665)", "PubChem SID": "SID363547106", "GFP, % of control": 68.8, "viability (ATP), % of control": 84.4}
{"Target gene": "C030006K11Rik (GeneID 223665)", "PubChem SID": "SID363549918", "GFP, % of control": 94.4, "viability (ATP), % of control": 94.4}
{"Target gene": "C030006K11Rik (GeneID 223665)", "PubChem SID": "SID363587972", "GFP, % of control": "143 (active)", "viability (ATP), % of control": 142}
{"Target gene": "Sdc1 (GeneID 20969)", "PubChem SID": "SID363541736", "GFP, % of control": 67.3, "viability (ATP), % of control": 61.8}
{"Target gene": "Sdc1 (GeneID 20969)", "PubChem SID": "SID363553328", "GFP, % of control": 28.8, "viability (ATP), % of control": 28.8}
{"Target gene": "Sdc1 (GeneID 20969)", "PubChem SID": "SID363566652", "GFP, % of control": 44.2, "viability (ATP), % of control": 45.4}
{"Target gene": "Amigo1 (GeneID 229715)", "PubChem SID": "SID363544206", "GFP, % of control": "157 (active)", "viability (ATP), % of control": 131}
{"Target gene": "Amigo1 (GeneID 229715)", "PubChem SID": "SID363550534", "GFP, % of control": 66.7, "viability (ATP), % of control": 64.4}
{"Target gene": "Amigo1 (GeneID 229715)", "PubChem SID": "SID363557083", "GFP, % of control": 25.6, "viability (ATP), % of control": 59.5}

Single entries from above:
Under “viability (ATP), % of control”, Cntfr (GeneID 12804) [SID363579004] has 88.6 (active)
Result of C030006K11Rik (GeneID 223665) [SID363587972] in “GFP, % of control”: 143 (active)
Popdc1 (GeneID 23828) [SID363587915], viability (ATP), % of control → 103
Iqsec2 (GeneID 245666) [SID363545775], GFP, % of control: 82.4
